Data: patent US20240301409A1, “Chemically Modified Small Activating RNA” (RACTIGEN THERAPEUTICS, priority 2021, published 2024)
Some results were stated once for a whole list of compounds, not compound by compound.

Target: T1, RNase A (Bos taurus, UniProt P61823)
T1 sequence (P61823 27-150): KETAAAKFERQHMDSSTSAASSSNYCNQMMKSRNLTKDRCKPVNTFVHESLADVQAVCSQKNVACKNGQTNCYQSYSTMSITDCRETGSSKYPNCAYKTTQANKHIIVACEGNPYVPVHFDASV
Assay: saRNA stability analysis in the presence of RNase A (agarose gel)
Settings: incubation 0 to 96 hours

Substance	time to complete degradation [h]
Rag1-40-21: saRNA duplex: sense mCmCAACUCAUUCUCCAAG*U*C (SEQ ID NO 15); antisense UACUfUGGAGAAfUGAGUfUGG*fC*A (SEQ ID NO 10) (sense CCAACUCAUUCUCCAAGUC; antisense UACUUGGAGAAUGAGUUGGCA; 2'-OMe, 2'-F, phosphorothioates; modified_base (1)..(2) (1,2)=2′-O-methyl(2′-OMe); modified_base (17)..(19) (17,18,19)=phosphorothioate (PS) backbone modification; modified_base (5)..(20) (5,12,17,20)=2′-fluoro; modified_base (19)..(21) (19,20,21)=phosphorothioate (PS) backbone modification)	≤ 24
Rag1-40-29: saRNA duplex: sense fCfCAACUCAUUCUCCAAG*U*C (SEQ ID NO 16); antisense UACUfUGGAGAAfUGAGUfUGG*fC*A (SEQ ID NO 10) (sense CCAACUCAUUCUCCAAGUC; antisense UACUUGGAGAAUGAGUUGGCA; 2'-F, phosphorothioates; modified_base (1)..(2) (1,2)=2′-fluoro; modified_base (17)..(19) (17,18,19)=phosphorothioate (PS) backbone modification; modified_base (5)..(20) (5,12,17,20)=2′-fluoro; modified_base (19)..(21) (19,20,21)=phosphorothioate (PS) backbone modification)	≤ 24
Rag1-40-5: saRNA duplex: sense mCmCAACUCAUUCUCCAAGmUmC (SEQ ID NO 5); antisense UACUfUGGAGAAfUGAGUfUGG*fC*A (SEQ ID NO 10) (sense CCAACUCAUUCUCCAAGUC; antisense UACUUGGAGAAUGAGUUGGCA; 2'-OMe, 2'-F, phosphorothioates; modified_base (1)..(19) (1,2,18,19)=2′-O-methyl(2′-OMe); modified_base (5)..(20) (5,12,17,20)=2′-fluoro; modified_base (19)..(21) (19,20,21)=phosphorothioate (PS) backbone modification)	≤ 24
Rag1-40-13: saRNA duplex: sense fCfCAACUCAUUCUCCAAGfUfC (SEQ ID NO 14); antisense UACUfUGGAGAAfUGAGUfUGG*fC*A (SEQ ID NO 10) (sense CCAACUCAUUCUCCAAGUC; antisense UACUUGGAGAAUGAGUUGGCA; 2'-F modifications, phosphorothioates; modified_base (1)..(19) (1,2,18,19)=2′-fluoro; modified_base (5)..(20) (5,12,17,20)=2′-fluoro; modified_base (19)..(21) (19,20,21)=phosphorothioate (PS) backbone modification)	≤ 24
